The target of this assay is Flag-NLRP4 (human) (UniProt Q96MN2). Briefly: affinity purification with mass spectrometry; lysate with overexpressed Flag-NLRP4 incubated with Flag antibodies and protein A/G Sepharose beads overnight at 4 °C; bound proteins digested with trypsin, nano-LC-MS/MS.

Protein sequences, listed by entry. Tags and fused reporters are not part of them.
UniProt Q96MN2: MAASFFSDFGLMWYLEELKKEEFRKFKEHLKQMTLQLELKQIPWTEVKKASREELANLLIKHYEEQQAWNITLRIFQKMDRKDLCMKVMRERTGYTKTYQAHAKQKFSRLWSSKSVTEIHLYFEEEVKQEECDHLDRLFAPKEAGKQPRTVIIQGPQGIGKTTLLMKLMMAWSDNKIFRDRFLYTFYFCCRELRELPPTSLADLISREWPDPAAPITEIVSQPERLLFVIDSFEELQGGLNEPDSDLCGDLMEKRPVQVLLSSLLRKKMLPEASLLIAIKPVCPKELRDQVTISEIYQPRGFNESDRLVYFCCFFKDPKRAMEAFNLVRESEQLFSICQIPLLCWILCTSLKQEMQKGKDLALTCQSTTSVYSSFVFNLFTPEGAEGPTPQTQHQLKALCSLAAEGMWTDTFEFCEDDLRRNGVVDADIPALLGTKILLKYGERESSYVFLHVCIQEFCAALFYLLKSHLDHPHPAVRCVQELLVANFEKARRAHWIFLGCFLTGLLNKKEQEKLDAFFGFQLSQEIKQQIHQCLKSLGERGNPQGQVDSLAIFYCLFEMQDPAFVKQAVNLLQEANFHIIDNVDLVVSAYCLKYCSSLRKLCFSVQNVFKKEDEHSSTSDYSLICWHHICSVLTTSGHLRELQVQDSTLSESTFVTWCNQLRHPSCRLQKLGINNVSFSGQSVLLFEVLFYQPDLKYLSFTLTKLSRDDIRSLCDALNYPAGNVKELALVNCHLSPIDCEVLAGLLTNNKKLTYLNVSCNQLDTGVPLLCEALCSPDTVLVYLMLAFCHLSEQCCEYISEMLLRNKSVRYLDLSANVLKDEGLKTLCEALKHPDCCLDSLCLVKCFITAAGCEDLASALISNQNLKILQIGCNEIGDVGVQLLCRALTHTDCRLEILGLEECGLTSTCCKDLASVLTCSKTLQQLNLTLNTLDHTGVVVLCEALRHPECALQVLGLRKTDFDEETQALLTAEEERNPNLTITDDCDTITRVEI
UniProt Q9NRC8: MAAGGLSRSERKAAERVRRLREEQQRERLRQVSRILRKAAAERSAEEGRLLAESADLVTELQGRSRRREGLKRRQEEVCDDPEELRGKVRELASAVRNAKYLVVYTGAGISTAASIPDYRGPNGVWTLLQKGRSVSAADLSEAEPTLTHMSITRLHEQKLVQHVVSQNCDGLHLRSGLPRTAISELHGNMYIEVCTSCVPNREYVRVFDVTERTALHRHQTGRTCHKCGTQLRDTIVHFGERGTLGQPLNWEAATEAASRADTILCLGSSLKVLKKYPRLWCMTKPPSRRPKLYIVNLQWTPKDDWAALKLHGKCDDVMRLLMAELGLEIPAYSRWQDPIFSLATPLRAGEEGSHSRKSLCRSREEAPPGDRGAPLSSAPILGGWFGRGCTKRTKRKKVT

The results in this text go back to PMC11347561.

These are yes or no findings as the source states them, for the method shown. In cells and extracts the contact can be indirect. Here binding means that the protein was enriched with, or labelled near, the bait; the list need not be complete.

With Sirt7 (from UniProt Q9NRC8 1-400), the binding entry is recorded as “binds”.
